Laboratory results from article PMC12645432 (ACS Chemical Biology, 2025).

Assay: solid-phase peptide synthesis
Conditions: coupling step

For D-CXCL8-Lys(Gly2-biotin), the step yield was 56% yield.
Work on cys^34-ser^72-Lys(Gly2-biotin) yielded a step yield of 20% yield.
